Percent effect of library compounds

Values are the deposited “Percent Effect”, in %. How 0% and 100% were set is not recorded. Most values in the screen are low, and negative values occur. The compounds are a random part of those screened. Two or more numbers in one place are separate tests of the same structure; such repeats can differ widely. A dash means the value is not listed here; it may have been measured.

A: 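Growth of Mycobacterium tuberculosis over 4 days (cholesterol / DPPC medium with tyloxapol); the read-out is not stated. Concentration: 50 µM. The record gives no direction; compounds that gave an IC50 in retests scored well above the rest, so higher reads as more growth inhibition. About 69,000 compounds were tested under these conditions; 0.54% (about 370) showed 50% or more at least once.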
B: 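Growth of Mycobacterium tuberculosis over 3 days (7H9 medium with glucose and tyloxapol); the read-out is not stated. Tested at 50 µM. Higher reads as more growth inhibition (inferred: compounds with an IC50 in retests scored well above the rest). About 69,000 compounds were tested under these conditions; 1.1% (about 760) showed 50% or more at least once.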

structure	A	B
[H][C@]12CC[C@]([H])(CN(S(=O)(=O)c3cccc(F)c3)C1)N(Cc1ccccc1)C2	6.223	52.45
COc1ccc(CCC(=O)Nc2ccc3ncn(C)c(=O)c3c2)cc1	4.997	-8.435 & -0.6016
C[C@@H]1CN(C(=O)c2ccncc2)CC[C@@]1(O)C1CCOCC1	-16.41 & -3.417	2.315
COCC(=O)NCC[C@H]1CC(C)(C)Oc2ccccc21	17.43	41.42
COCCN(Cc1ccoc1)C(=O)c1ccccn1	14.69	0.1115
Cc1nnc(NC(=O)NCc2ccc(OC(C)C)nc2)s1	20.62	30.46
Cn1ncc2c(=O)[nH]c(CN3CCCC3c3ccccc3Cl)nc21 (centres unmarked)	-15.17	1.298 & -9.484
CC(=O)N(CCc1nc(-c2cc(C(N)=O)co2)cs1)C(C)C	-21.32	0.6999
Cc1cccc(-c2nc(C)nn2CC(=O)N(C)C2CC2)c1	-17.19	-13.65
Cc1nc(C)n(CC2CN(CC(=O)Nc3cccnc3)CCO2)n1 (centres unmarked)	-28.54	4.605 & -1.601
OC1(CNCc2noc(Cc3ccccc3)n2)CCCNC1 (centres unmarked)	6.563	24.16
CSc1ccc(S(=O)(=O)N2CCCCC2CCNC(C)=O)cc1 (centres unmarked)	3.874	6.387
CC(=O)N1CC=C(n2c(=O)[nH]c3ccccc32)CC1	-18.73	-28.52
O=C(c1ncoc1-c1ccco1)N1CCCN(c2nccs2)CC1	-9.745	-12.29
Cc1c[nH]c(CN2CCCCC2CCn2cccn2)c(C)c1=O (centres unmarked)	9.431	9.742 & -7.864
CCc1cnc(CN2CCC(O)(c3cc(OC)cc(OC)c3)CC2)o1	5.21	19.91
CCC(C)C(=O)Nc1ccc2oc(=O)n(CCN(C)C)c2c1 (centres unmarked)	-8.513 & -11.72	3.835
CCN(C)C(=O)c1coc(COc2ccccc2)n1	-5.814	-0.03306
CS(=O)(=O)NCc1cc(=O)n2c(n1)CN(CC1CC1)CCC2.O=C(O)C(F)(F)F	-7.199	-1.17
CC(CNC(=O)NCc1ccco1)CC1(C)OCCO1 (centres unmarked)	20.79	-15.21
Cc1nc[nH]c1CN(C)Cc1cnn(-c2ccc(F)cc2)c1	-7.622	-9.175
COC(=O)CCCNC(=O)N1CCc2c([nH]c3ccc(Cl)cc23)C1	-9.945	9.21
COc1ccc(CCn2cnc(C#N)n2)cc1	2.113	1.883
Cc1ccccc1CN1CC[C@H](c2nnc(-c3cncn3C)o2)C1	-10.32	7.863 & -1.527
Cc1cc(C(=O)O)cc(S(=O)(=O)Nc2ccc3c(c2)OCCO3)c1C	3.463	15.87
CC(=O)N1CCCN(CCCc2ccccc2)CC1	15.78	-9.762
O=C(c1cn(-c2ccccc2Cl)nn1)N1CCCSCC1	7.272	33.67
CCOc1ccccc1NC(=O)NCC(C)(O)CCSC (centres unmarked)	-2.728	-16.97 & 11.93
O=C(c1onc2ccccc12)N1CCC2(CCCNC2)C1 (centres unmarked)	-14.32	-15.36
Cc1cn(CC(=O)NC2CCN(C(=O)C3CC3)CC2)c2ccccc12	0.09888	13.11
CCCC(=O)NCc1ccc(N2CCCCC2)cc1	-25.65	-
Cc1nc(Cn2c3c(ccc2=O)CCN(CC2CC2)CC3)cs1.O=C(O)C(F)(F)F.O=C(O)C(F)(F)F	14.45	-0.07279 & -12.37
CCc1nc(C)c(C(=O)N(C)Cc2cnc3ccccn23)o1	-4.853	2.871
CN(Cc1nnc2ccccn12)C(=O)CC1CCCCC1	18.99	22.44
O=C(O)C(F)(F)F.[H][C@@]12COC[C@]1(CNC(=O)c1ccccc1)CN(Cc1ccco1)C2	-12.81	-3.635
[H][C@@]12CS(=O)(=O)C[C@]1([H])N(Cc1ccc(F)c(C)c1)CCN2CC1CC1	-12.37 & 1.464	-8.28
CC(C)c1ncc(CN2C[C@@H](CN3CCCC3)[C@@H](CO)C2)cn1	-13.64	-10.93
CCCc1nc(CNCC2CCCN2c2cccnn2)no1 (centres unmarked)	5.767	8.054
CC(C)c1nc(C2CCCN2CC(=O)Nc2nncs2)no1 (centres unmarked)	-7.02	-8.351
O=C(O)C1(Cc2ccc(F)cc2)CCCN(Cc2ccncc2)C1 (centres unmarked)	10.41	-9.054 & 0.4159

For reference, 5 entries once more:

{"structure": "O=C(O)C(F)(F)F.[H][C@@]12COC[C@]1(CNC(=O)c1ccccc1)CN(Cc1ccco1)C2", "A": -12.81, "B": -3.635}
{"structure": "C[C@@H]1CN(C(=O)c2ccncc2)CC[C@@]1(O)C1CCOCC1", "A": "-16.41 & -3.417", "B": 2.315}
{"structure": "Cc1cc(C(=O)O)cc(S(=O)(=O)Nc2ccc3c(c2)OCCO3)c1C", "A": 3.463, "B": 15.87}
{"structure": "O=C(O)C1(Cc2ccc(F)cc2)CCCN(Cc2ccncc2)C1", "stereo": "centres unmarked", "A": 10.41, "B": "-9.054 & 0.4159"}
{"structure": "Cc1nc(C)n(CC2CN(CC(=O)Nc3cccnc3)CCO2)n1", "stereo": "centres unmarked", "A": -28.54, "B": "4.605 & -1.601"}

From ChEMBL document CHEMBL3988442, “University of Dundee, Small-Polar-MMV Screening Library” (2021).